Test results from patent publication US20260167714A1.

B1: Hz45.01-LALA (antibody, human IgG1, kappa, L234A L235A, V domains shown)
VH: QVQLVQSGAEVKKPGASVKVSCKASGYTFTDYYMNWVRQAPGQRLEWIGDINPNNGGTSYNQKFKGRATITVDTSASTAYMELSSLRSEDTAVYYCARGGAELTGTYWYFDVWGQGTTVTVSS
VL: DIQMTQSPSSLSASVGDRVTITCRASENIYSNLAWYQQKPGKAPKVLVYGATNLADGVPSRFSGSGSGTEYTLTISSLQPEDFATYYCQHFWDSPFTFGGGTKVEIKR
B2: Hz156.03-LALA (antibody, human IgG1, kappa, L234A L235A, V domains shown)
VH: QVQLVQSGAEVKKPGSSVKVSCKASGYTFTDYYMNWVRQAPGQGLEWIARIYPGVYRTHYNEKFKDRVTLTADKSTSTAYMELSSLRSEDTAVYYCARSGYYGGTYEEDAMDYWGQGTTVTVSS
VL: DIQMTQSPSSLSASVGDRVTITCRASENIYSNLAWYQQKPGKAPKLLVYAATSLADGVPSRFSGSGSGTDYTLTISSLQPEDFATYYCQNFWDTPYTFGQGTKVEIKR
B3: Hz77-LALA (antibody, human IgG1, kappa, L234A L235A, V domains shown)
VH: QVQLVQSGAEVKKPGSSVKVSCKASGYSFTGYSVNWVRQAPGQGLEWIGRINPYNGDIFNNQKFKGRATITVDKSTSTAYMELSSLRSEDTAVYYCARGTTVGGAWFAYWGQGTLVTVSS
VL: DIVMTQSPDSLAVSLGERATINCRASESVDSYGYSFLHWYQQKPGQPPKLLIYLASNLESGIPDRFSGSGSGTDFTLTISSLQAEDVAVYYCQQSNEDLMYTFGGGTKVEIKR

Key:
[1] = biological target: recombinant human ILT4 (LILRB2) (human); assay: SPR
[2] = biological target: recombinant human ILT4 (LILRB2) (human); assay: SPR, Biacore 8K cross-reactivity study

Binder | binding [1] | binding [2]
B1 | binds | binds
B2 | binds | binds
B3 |  | binds

No constants are given. Whether binding was seen depends on the method and setting. Binding can be weak; no strength is given.
